The test relates to Gli-responsive luciferase reporter cells, SUFU pathway antagonism. Description: Gli-SUFU pathway antagonists, dose response, cell-based, luciferase luminescence, uHTS hits (AID 602464).

Structures are written as SMILES.

Consider `O=C(CCCCCCC(=O)Nc1ccccc1)NO`, for which the 50% inhibitory concentration (IC50) (as a rule, the concentration at which inhibition is half-maximal) was 2230 nM.

The values are drawn from PubChem BioAssay AID602464 (Sanford-Burnham Center for Chemical Genomics, 2012).
